According to US20260048151A1, “HEMICYANINE PUSH-PULL DYES BASED ON CHROMENE ELECTRON DONORS” (UNIVERSITY OF CONNECTICUT, priority 2022, published 2026):
Some results were stated once for a whole list of compounds, not compound by compound. Some ranges recur; such a range may be that of the whole group of compounds.

Test: Absorption and emission spectra, fluorescence quantum efficiency in EtOH, PBS and lipid vesicles (MLV)
Type: physicochemical
Protocol: FIGS. 2A-2C are plots showing absorption and emission spectra of 2a, in comparison with ElectroFluor630, in various solvent environments: MLV, EtOH, and PBS. Multilamellar lipid vesicle suspension (MLV) was prepared by sonicating soybean phosphatidylcholine in PBS buffer (2 mg/mL) to mimic the cell membrane environment. The emission spectra in ethanol and PBS buffer were scaled 10 and 20 times respectively relative to the emission spectra in MLV. Excitation wavelength is 580 nm for emission spectra.
All chemicals were purchased from commercial sources (Sigma Aldrich, Acros, TCI America, Combi-Blocks, and others) and used without further purification. Column chromatography was generally performed on COMBIFLASH NextGen 300 using normal phase silica columns except that for some final dye products amine silica columns were used. Thin layer chromatography (TLC) was carried out on EM 60 F-254 plastic TLC plates. NMR spectra were recorded on Varian 400 MHz, 500 MHz, and 800 MHz instruments at the UConn Heath Structural Biology Facility. All spectra are referenced internally to TMS or residual solvent signals. Electrospray ionization (ESI) high-resolution mass spectra (HRMS) were obtained on a QStar Elite (AB Sciex) at the Department of Chemistry, University of Connecticut. UV/Vis absorption spectra were recorded on a UV-Visible spectrophotometer (Shimadzu, UV-1601PC) and fluorescence emission spectra on a Horiba Fluorolog spectrofluorometer (Horiba, Inc., Edison, NJ). Fluorescence quantum yield for dyes was determined by a relative method using Rhodamine 6G (excited at 480 nm, FQY=0.95 in EtOH) or cresyl violet (excited at 580 nm, FQY=0.54 in MeOH) as the references.
Absorbance and the fluorescence properties of the new VSDs were determined. […] This is particularly advantageous for fluorescence imaging because background fluorescence from unbound dye is negligible. […] This is also a benefit for fluorescence detection and imaging, as the fluorescence can be readily filtered from scattered exciting light. […]

red shift of absorption and emission spectra relative to ElectroFluor630	Compound
50-65 nm	CCCCN(CCCC)c1ccc2c(c1)OCC(/C=C/c1c(F)c[n+](CCC[N+](CC)(CC)CC)c3ccccc13)=C2.[Br-].[Br-] [2a]
50-65 nm	CCCCCN(CCCCC)c1ccc2c(c1)OCC(/C=C/c1c(F)c[n+](CCC[N+](CC)(CC)CC)c3ccccc13)=C2.[Br-].[Br-] [2b]
50-65 nm	CCCCCCN(CCCCCC)c1ccc2c(c1)OCC(/C=C/c1c(F)c[n+](CCC[N+](CC)(CC)CC)c3ccccc13)=C2.[Br-].[Br-] [2c]
